These are yes or no findings as the source states them, for the method shown. Some binding calls cover weakened binding; strength is not graded here.
B1: PLA2 Vur-PL2 from V. ursinii venom (enzyme)
chain: NLYQFGKMIRYKTGKSALLSYSDYGCYCGWGGQGKPKDATDRCCFVHDCCYGRVNGCDPKLTIYSYSFENGDIVCGGDDSCKRAVCECDRVAAICFGENLNTYDKKYKNYPSSQCTETEQC

The chains behind the UniProt entries cited, without tags or fusion partners. Where a name states a change or a piece, a line headed by the entry shows the natural chain unless it says otherwise. Residues count along the entry.
UniProt P36544, residues 23-502: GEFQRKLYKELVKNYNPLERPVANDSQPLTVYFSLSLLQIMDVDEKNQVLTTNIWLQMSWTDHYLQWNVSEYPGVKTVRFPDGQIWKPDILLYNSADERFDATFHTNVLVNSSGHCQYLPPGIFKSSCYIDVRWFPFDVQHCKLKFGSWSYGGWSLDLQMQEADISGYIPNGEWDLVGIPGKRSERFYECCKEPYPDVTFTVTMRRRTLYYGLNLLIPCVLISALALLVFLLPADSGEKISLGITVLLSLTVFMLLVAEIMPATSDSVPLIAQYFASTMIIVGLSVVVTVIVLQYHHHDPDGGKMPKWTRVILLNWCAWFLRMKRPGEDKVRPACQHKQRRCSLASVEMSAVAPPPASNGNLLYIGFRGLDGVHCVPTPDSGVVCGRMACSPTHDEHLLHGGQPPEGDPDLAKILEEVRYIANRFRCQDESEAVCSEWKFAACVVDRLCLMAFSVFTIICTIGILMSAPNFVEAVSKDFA
UniProt P58154, residues 20-229: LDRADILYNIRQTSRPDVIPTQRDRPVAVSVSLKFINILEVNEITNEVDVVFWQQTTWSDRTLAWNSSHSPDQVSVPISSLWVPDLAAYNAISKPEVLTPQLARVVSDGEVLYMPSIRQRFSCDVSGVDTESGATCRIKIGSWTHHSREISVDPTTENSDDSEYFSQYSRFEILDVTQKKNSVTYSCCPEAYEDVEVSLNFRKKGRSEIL
UniProt P02710: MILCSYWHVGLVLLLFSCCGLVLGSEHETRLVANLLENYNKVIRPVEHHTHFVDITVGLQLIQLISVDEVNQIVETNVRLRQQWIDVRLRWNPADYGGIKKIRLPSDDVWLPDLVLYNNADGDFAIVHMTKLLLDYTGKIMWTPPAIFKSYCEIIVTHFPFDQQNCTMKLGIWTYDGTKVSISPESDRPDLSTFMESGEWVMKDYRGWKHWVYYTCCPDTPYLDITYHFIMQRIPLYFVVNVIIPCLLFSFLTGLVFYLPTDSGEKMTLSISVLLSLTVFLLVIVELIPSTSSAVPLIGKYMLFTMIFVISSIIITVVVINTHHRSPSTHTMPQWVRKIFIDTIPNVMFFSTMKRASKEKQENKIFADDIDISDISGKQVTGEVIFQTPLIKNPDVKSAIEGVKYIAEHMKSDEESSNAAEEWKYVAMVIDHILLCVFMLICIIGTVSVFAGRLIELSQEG
UniProt P60615, residues 22-95: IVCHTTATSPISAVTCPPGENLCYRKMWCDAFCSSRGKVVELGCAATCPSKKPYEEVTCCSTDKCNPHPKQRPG

Columns and labels:
[1] = biological target: human neuronal α7 nicotinic acetylcholine receptor (human) (UniProt P36544); test: radioligand binding; only the binder purified
[2] = biological target: acetylcholine-binding protein from L. stagnalis (L. stagnalis) (UniProt P58154); test: radioligand binding; both purified
[3] = biological target: T. californica muscle-type nicotinic acetylcholine receptor (T. californica) (UniProt P02710); test: radioligand binding; only the binder purified

Molecule | binding [1] | binding [2] | binding [3]
Mono-iodinated (3-[125I]iodotyrosyl54)-α-bungarotoxin (from UniProt P60615 22-95) (ligand) | binds | – | –
B1 | – | no binding (tested: >30 µM) | no binding (tested: >100 µM)

Source: paper PMC4270787 (PLoS ONE, 2014)
